From the supplement of paper PMC12067093, “Discovery and optimisation of a covalent ligand for TRIM25 and its application to targeted protein ubiquitination” (Chemical Science, 2025)
The list shows a part of the results.

The chains behind the UniProt entries cited, without tags or fusion partners. Where a name states a change or a piece, a line headed by the entry shows the natural chain unless it says otherwise.
UniProt Q9UH65: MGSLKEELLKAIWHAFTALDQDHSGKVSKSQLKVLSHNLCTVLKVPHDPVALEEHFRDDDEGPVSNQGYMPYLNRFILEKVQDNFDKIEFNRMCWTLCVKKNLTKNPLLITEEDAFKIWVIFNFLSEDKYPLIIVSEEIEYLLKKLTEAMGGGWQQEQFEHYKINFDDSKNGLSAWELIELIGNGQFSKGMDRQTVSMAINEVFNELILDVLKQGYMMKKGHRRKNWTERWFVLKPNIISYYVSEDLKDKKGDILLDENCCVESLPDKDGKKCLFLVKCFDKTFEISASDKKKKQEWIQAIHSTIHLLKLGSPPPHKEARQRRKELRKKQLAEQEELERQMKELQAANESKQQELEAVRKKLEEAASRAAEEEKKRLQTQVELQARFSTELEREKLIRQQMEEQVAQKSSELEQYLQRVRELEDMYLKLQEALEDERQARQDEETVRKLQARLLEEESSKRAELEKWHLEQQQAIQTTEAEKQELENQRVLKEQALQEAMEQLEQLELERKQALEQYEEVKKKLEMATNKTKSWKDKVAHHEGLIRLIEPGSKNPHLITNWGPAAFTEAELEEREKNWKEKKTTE
UniProt Q15831: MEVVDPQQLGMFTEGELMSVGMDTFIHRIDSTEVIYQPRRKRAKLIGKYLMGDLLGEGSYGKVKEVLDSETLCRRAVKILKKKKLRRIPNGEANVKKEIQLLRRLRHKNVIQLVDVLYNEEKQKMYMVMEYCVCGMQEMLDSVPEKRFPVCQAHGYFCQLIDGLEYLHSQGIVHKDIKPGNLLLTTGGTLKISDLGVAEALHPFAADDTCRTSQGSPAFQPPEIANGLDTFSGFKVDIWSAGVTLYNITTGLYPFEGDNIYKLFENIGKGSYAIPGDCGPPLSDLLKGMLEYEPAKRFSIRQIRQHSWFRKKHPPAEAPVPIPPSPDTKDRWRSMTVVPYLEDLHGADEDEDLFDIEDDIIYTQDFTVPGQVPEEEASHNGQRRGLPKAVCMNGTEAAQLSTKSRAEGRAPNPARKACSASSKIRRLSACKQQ
UniProt Q9UNE7: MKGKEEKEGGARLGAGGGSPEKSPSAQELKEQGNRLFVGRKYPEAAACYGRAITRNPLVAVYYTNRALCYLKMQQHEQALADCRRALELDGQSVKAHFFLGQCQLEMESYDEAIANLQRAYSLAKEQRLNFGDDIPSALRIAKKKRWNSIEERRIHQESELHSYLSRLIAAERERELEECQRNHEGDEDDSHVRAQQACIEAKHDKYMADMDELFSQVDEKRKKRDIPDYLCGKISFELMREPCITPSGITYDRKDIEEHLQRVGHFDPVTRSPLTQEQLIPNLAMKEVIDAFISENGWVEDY
UniProt Q9UQ35: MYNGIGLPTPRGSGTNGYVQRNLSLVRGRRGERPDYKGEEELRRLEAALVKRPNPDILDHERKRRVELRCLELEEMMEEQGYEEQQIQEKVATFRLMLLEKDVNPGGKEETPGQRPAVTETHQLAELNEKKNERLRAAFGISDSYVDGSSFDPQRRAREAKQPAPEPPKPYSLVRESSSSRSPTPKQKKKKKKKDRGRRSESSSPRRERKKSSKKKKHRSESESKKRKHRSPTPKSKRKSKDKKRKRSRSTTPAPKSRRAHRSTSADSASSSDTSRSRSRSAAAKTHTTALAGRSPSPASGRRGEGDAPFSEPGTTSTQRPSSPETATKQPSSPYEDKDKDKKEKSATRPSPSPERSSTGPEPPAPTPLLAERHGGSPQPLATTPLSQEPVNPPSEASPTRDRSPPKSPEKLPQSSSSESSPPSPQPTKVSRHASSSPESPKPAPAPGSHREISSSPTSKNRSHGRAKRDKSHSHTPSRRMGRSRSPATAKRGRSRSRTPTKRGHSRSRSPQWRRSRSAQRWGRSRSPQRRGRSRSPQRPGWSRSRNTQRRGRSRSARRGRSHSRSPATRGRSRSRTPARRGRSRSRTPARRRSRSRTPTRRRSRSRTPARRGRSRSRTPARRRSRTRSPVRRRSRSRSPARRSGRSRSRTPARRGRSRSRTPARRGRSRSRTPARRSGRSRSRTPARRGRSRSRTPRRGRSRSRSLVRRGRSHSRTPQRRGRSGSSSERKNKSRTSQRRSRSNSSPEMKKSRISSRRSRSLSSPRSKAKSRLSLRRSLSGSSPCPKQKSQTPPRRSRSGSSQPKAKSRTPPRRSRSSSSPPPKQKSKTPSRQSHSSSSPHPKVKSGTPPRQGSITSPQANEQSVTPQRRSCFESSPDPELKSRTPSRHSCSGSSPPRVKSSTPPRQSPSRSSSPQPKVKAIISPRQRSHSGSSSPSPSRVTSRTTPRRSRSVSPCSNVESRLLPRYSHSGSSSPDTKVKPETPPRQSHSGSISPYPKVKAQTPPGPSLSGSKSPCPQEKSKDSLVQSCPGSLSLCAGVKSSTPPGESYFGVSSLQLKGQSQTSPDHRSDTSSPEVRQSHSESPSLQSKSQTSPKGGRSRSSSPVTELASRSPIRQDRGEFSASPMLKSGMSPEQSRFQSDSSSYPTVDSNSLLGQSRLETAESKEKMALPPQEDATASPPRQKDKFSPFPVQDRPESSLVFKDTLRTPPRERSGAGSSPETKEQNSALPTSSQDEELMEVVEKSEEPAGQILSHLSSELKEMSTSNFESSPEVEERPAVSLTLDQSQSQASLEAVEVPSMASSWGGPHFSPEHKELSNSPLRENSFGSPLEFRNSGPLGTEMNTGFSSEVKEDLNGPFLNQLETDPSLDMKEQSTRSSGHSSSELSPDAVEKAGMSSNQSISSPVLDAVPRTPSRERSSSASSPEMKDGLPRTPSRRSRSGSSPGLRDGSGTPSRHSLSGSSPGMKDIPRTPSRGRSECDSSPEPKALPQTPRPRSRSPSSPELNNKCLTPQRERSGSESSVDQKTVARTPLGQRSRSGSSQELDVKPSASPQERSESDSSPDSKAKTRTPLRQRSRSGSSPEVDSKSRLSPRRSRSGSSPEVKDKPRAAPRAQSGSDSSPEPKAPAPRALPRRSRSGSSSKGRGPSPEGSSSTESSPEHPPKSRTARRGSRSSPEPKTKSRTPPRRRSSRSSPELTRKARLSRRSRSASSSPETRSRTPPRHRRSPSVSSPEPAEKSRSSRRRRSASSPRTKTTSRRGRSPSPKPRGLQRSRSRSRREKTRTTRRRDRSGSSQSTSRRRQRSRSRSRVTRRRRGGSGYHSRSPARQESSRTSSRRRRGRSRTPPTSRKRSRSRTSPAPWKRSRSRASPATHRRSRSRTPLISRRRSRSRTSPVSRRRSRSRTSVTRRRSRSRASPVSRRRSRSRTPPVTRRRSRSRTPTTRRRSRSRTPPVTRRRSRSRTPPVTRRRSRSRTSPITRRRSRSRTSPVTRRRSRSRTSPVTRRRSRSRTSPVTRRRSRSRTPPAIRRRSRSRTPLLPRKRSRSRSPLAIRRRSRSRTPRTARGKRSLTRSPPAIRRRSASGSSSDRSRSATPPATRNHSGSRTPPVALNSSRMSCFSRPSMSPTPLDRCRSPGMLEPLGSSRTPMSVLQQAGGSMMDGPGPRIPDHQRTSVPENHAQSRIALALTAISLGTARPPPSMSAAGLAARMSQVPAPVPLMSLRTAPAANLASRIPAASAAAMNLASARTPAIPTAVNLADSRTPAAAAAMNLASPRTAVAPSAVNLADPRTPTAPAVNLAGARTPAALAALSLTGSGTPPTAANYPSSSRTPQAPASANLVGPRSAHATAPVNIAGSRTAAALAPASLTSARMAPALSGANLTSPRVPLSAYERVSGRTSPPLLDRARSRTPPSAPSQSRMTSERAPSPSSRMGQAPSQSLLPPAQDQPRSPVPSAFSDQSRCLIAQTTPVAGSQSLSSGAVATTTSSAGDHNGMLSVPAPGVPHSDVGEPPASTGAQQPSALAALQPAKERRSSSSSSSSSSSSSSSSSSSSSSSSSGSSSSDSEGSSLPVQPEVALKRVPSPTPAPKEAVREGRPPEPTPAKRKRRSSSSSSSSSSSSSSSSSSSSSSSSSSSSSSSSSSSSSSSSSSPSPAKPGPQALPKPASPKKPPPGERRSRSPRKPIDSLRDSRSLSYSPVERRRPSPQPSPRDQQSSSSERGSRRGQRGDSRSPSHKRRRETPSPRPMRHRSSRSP
UniProt Q9UH99: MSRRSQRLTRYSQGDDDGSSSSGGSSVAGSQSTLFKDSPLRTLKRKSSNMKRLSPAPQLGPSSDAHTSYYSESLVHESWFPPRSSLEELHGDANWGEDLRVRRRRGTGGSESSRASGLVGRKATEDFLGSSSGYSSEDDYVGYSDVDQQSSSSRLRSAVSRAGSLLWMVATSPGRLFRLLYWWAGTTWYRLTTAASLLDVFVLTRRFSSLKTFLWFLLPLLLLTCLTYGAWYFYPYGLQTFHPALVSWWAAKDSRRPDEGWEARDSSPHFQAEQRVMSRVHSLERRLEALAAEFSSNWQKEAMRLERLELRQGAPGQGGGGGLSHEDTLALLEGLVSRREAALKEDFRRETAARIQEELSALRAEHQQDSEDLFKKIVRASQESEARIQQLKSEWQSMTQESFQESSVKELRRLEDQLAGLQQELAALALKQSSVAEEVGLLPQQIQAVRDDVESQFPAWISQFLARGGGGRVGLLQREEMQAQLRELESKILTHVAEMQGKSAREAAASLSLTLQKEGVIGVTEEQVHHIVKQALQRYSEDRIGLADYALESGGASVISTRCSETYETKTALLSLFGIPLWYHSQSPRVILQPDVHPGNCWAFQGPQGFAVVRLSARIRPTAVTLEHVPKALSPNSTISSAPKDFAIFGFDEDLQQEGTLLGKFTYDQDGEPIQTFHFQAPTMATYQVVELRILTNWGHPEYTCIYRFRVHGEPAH
UniProt Q15468: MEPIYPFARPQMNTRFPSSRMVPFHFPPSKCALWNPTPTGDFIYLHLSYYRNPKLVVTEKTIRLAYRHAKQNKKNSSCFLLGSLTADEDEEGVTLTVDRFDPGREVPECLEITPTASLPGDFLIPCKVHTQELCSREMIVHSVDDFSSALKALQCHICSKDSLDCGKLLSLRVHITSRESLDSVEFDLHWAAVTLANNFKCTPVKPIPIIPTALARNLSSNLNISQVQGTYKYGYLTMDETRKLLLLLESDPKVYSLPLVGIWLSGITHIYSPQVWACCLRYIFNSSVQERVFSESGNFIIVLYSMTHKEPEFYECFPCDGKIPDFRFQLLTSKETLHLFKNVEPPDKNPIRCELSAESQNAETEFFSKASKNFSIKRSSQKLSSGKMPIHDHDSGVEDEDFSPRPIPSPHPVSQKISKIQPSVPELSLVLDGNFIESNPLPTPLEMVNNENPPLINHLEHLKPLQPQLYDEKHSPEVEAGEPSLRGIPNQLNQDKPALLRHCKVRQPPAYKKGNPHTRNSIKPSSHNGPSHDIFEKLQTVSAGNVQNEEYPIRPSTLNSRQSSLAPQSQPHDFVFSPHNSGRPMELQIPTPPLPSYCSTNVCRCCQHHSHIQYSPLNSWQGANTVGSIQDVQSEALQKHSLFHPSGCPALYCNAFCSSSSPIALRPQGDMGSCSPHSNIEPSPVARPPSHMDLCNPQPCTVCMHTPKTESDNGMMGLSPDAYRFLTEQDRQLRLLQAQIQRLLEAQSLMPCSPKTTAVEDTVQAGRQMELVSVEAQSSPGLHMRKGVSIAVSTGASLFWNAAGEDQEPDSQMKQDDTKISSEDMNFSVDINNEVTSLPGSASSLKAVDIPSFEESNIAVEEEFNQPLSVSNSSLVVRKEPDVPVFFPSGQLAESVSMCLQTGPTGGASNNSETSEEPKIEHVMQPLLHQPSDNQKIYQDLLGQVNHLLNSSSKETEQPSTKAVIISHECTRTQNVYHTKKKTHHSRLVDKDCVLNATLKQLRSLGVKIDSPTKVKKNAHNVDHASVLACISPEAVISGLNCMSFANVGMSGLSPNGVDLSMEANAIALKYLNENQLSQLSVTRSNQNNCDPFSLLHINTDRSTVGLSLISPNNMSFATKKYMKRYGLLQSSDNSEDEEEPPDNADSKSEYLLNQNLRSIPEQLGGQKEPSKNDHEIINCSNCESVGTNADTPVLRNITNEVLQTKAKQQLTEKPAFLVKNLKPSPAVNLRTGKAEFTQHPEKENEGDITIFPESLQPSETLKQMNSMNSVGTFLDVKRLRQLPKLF
UniProt Q9H4F1: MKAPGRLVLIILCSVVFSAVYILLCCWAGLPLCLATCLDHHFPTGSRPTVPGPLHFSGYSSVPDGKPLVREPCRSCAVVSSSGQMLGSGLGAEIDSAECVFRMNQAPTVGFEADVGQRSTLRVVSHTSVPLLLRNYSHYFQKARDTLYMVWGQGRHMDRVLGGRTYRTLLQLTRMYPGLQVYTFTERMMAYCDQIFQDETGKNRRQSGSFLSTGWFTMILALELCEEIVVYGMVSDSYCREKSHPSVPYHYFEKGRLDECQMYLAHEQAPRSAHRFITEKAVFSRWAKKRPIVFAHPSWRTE

Each target was assayed with Cc1cc(ccc1-c1ccccc1)C(=O)N1CCCN(CC1)C(=O)CCl [compound 10] (assay: probe-labelled cysteine peptide fold change vs DMSO (competition) (log2 fold change); higher = less target engagement (more negative = stronger competition)). Conditions: 10 µM; THP-1; incubation time: 4 h.
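Also: competitive profiling in live THP-1 cells: cysteine peptides tagged with an iodoacetamide desthiobiotin (IA-DTB) probe, intensity after compound treatment relative to DMSO-treated cells.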

Target | probe-labelled cysteine peptide fold change
STXBP5_Q5T5C0_49_VLDGLTAGSSSASQQQQQQHPPGNREPEIQETLQSEHFQLCK (UniProt Q5T5C0) | -0.0678
STIP1_P31948_417+420_DCEECIQLEPTFIK (UniProt P31948) | 0.874
STK38_Q15208_9_AMTGSTPCSSMSNHTK (UniProt Q15208) | 0.103
SWAP70_Q9UH65_261_KGDILLDENCCVESLPDK (UniProt Q9UH65) | -0.188
SRRT_Q9BXP5_640_CGIIHVR (UniProt Q9BXP5) | 0.192
SYK_P43405_259_VLTVPCQK (UniProt P43405) | 0.0686
SUPT5H_O00267_1012_SVTGGMCSVYLK (UniProt O00267) | 0.159
STRBP_Q96SI9_254_SIGTCNRPLGAGEALR (UniProt Q96SI9) | -0.222
STIP1_P31948_471_CMMAQYNR (UniProt P31948) | 0.271
SUGT1_Q9Y2Z0_54_AYCHILLGNYCVAVADAKK (UniProt Q9Y2Z0) | -0.0997
SSBP4_Q9BWG4_81_EACEHSGEAK (UniProt Q9BWG4) | -0.186
STYX_Q8WUJ0_156_FCINPNAGFVHQLQEYEAIYLAK (UniProt Q8WUJ0) | 0.0482
SSH3_Q8TE77_413_AQGTHVLVHCK (UniProt Q8TE77) | 0.153
STXBP5_Q5T5C0_933_VISLPTQNCAYK (UniProt Q5T5C0) | 0.186
STK24_Q9Y6E0_394_SQACGGNLGSIEELR (UniProt Q9Y6E0) | -0.158
STK11_Q15831_210_ISDLGVAEALHPFAADDTCR (UniProt Q15831) | -0.252
SUPT4H1_P63272_36_TIDQFEYDGCDNCDAYLQMK (UniProt P63272) | 0.121
SUPT5H_O00267_638_KLVENGGMFVCK (UniProt O00267) | -0.0826

Target | probe-labelled cysteine peptide fold change
SURF2_Q15527_127_QGVEYVPACLVHR (UniProt Q15527) | -0.0766
STRN4_Q9NRL3_337_CTVDGSPHELESR (UniProt Q9NRL3) | -0.216
STAT3_P40763_542_LLGPGVNYSGCQITWAK (UniProt P40763) | -0.111
STUB1_Q9UNE7_232_DIPDYLCGK (UniProt Q9UNE7) | 0.182
SUN1_O94901_403_QPLQGDSEAFPWHWMSGVEQQVASLSGQCHHHGENLR (UniProt O94901) | 0.209
SVIL_O95425_671_CTSHSETPTVDDEEK (UniProt O95425) | 0.141
SRRM2_Q9UQ35_1480_SECDSSPEPK (UniProt Q9UQ35) | -0.151
STAU1_O95793_541_DVESCHDMAALNILK (UniProt O95793) | 0.174
SUN2_Q9UH99_705_ILTNWGHPEYTCIYR (UniProt Q9UH99) | 0.195
SUMF1_Q8NBK3_235_RLPTEAEWEYSCR (UniProt Q8NBK3) | -0.206
STIL_Q15468_353_CELSAESQNAETEFFSK (UniProt Q15468) | -0.0727
ST6GALNAC4_Q9H4F1_260_GRLDECQMYLAHEQAPR (UniProt Q9H4F1) | 0.203
STAM2_O75886_76_VPHVALQALTLLGACVANCGK (UniProt O75886) | -0.0779
STARD7_Q9NQZ5_362_KNEGSCGPAR (UniProt Q9NQZ5) | -0.295
SYK_P43405_101_THASPADLCHYHSQESDGLVCLLK (UniProt P43405) | 0.197
SUCLG1_P53597_60_IICQGFTGK (UniProt P53597) | -0.0662
STUB1_Q9UNE7_180_ERELEECQR (UniProt Q9UNE7) | 0.0592

Same assay, conditions: 50 µM; THP-1; incubation time: 4 h

Target | probe-labelled cysteine peptide fold change
STXBP5_Q5T5C0_49_VLDGLTAGSSSASQQQQQQHPPGNREPEIQETLQSEHFQLCK (UniProt Q5T5C0) | -0.0625
STIP1_P31948_417+420_DCEECIQLEPTFIK (UniProt P31948) | -0.0811
STK38_Q15208_9_AMTGSTPCSSMSNHTK (UniProt Q15208) | -0.865
SWAP70_Q9UH65_261_KGDILLDENCCVESLPDK (UniProt Q9UH65) | -0.128
SRRT_Q9BXP5_640_CGIIHVR (UniProt Q9BXP5) | 0.149
SYK_P43405_259_VLTVPCQK (UniProt P43405) | 0.113
SUPT5H_O00267_1012_SVTGGMCSVYLK (UniProt O00267) | 0.0393
STRBP_Q96SI9_254_SIGTCNRPLGAGEALR (UniProt Q96SI9) | 0.0552
STIP1_P31948_471_CMMAQYNR (UniProt P31948) | -0.0499
SUGT1_Q9Y2Z0_54_AYCHILLGNYCVAVADAKK (UniProt Q9Y2Z0) | -0.395
SSBP4_Q9BWG4_81_EACEHSGEAK (UniProt Q9BWG4) | -0.777
STYX_Q8WUJ0_156_FCINPNAGFVHQLQEYEAIYLAK (UniProt Q8WUJ0) | 0.342
SSH3_Q8TE77_413_AQGTHVLVHCK (UniProt Q8TE77) | 0.0646
STXBP5_Q5T5C0_933_VISLPTQNCAYK (UniProt Q5T5C0) | 0.107
STK24_Q9Y6E0_394_SQACGGNLGSIEELR (UniProt Q9Y6E0) | -0.025
STK11_Q15831_210_ISDLGVAEALHPFAADDTCR (UniProt Q15831) | -0.136
SUPT4H1_P63272_36_TIDQFEYDGCDNCDAYLQMK (UniProt P63272) | -0.288
SUPT5H_O00267_638_KLVENGGMFVCK (UniProt O00267) | 0.0974

Target | probe-labelled cysteine peptide fold change
SURF2_Q15527_127_QGVEYVPACLVHR (UniProt Q15527) | -0.161
STRN4_Q9NRL3_337_CTVDGSPHELESR (UniProt Q9NRL3) | -0.349
STAT3_P40763_542_LLGPGVNYSGCQITWAK (UniProt P40763) | -0.0741
STUB1_Q9UNE7_232_DIPDYLCGK (UniProt Q9UNE7) | 0.00134
SUN1_O94901_403_QPLQGDSEAFPWHWMSGVEQQVASLSGQCHHHGENLR (UniProt O94901) | -0.282
SVIL_O95425_671_CTSHSETPTVDDEEK (UniProt O95425) | 0.153
SRRM2_Q9UQ35_1480_SECDSSPEPK (UniProt Q9UQ35) | -0.131
STAU1_O95793_541_DVESCHDMAALNILK (UniProt O95793) | -0.0308
SUN2_Q9UH99_705_ILTNWGHPEYTCIYR (UniProt Q9UH99) | 0.345
SUMF1_Q8NBK3_235_RLPTEAEWEYSCR (UniProt Q8NBK3) | -0.144
STIL_Q15468_353_CELSAESQNAETEFFSK (UniProt Q15468) | -0.147
ST6GALNAC4_Q9H4F1_260_GRLDECQMYLAHEQAPR (UniProt Q9H4F1) | 0.0855
STAM2_O75886_76_VPHVALQALTLLGACVANCGK (UniProt O75886) | 0.0749
STARD7_Q9NQZ5_362_KNEGSCGPAR (UniProt Q9NQZ5) | -0.378
SYK_P43405_101_THASPADLCHYHSQESDGLVCLLK (UniProt P43405) | -0.0862
SUCLG1_P53597_60_IICQGFTGK (UniProt P53597) | -0.141
STUB1_Q9UNE7_180_ERELEECQR (UniProt Q9UNE7) | 0.157
